Results are given in words; binding and its absence hold for the method and conditions named. In cells and extracts the contact can be indirect. Binding can be weak; no strength is given.
Target: FLAG-IRF3(5D), constitutively active phosphomimetic mutant of IRF3 (human) (UniProt Q14653)
Test: co-IP; HEK 293T co-transfected 48 h with CTNNB1 and FLAG-tagged bait; extracts made after 16 h of SeV infection; immunoprecipitation against FLAG; blot with anti-FLAG and anti-CTNNB1

Chains of the proteins cited; added tags and fusions are not shown. Lines headed by an entry give the natural chain unless they say otherwise; changes in a name come on top.
UniProt Q14653: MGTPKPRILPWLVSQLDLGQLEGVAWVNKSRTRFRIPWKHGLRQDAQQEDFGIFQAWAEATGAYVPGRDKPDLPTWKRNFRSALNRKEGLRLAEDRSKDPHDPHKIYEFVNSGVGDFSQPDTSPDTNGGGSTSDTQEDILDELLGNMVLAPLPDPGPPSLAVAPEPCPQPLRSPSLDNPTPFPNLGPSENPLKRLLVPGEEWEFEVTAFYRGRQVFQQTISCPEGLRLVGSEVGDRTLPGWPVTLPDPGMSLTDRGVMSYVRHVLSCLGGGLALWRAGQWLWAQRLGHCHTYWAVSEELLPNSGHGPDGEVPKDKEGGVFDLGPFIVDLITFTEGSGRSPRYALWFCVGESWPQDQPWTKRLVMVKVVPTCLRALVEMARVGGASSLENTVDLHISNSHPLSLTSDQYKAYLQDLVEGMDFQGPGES
UniProt P35222: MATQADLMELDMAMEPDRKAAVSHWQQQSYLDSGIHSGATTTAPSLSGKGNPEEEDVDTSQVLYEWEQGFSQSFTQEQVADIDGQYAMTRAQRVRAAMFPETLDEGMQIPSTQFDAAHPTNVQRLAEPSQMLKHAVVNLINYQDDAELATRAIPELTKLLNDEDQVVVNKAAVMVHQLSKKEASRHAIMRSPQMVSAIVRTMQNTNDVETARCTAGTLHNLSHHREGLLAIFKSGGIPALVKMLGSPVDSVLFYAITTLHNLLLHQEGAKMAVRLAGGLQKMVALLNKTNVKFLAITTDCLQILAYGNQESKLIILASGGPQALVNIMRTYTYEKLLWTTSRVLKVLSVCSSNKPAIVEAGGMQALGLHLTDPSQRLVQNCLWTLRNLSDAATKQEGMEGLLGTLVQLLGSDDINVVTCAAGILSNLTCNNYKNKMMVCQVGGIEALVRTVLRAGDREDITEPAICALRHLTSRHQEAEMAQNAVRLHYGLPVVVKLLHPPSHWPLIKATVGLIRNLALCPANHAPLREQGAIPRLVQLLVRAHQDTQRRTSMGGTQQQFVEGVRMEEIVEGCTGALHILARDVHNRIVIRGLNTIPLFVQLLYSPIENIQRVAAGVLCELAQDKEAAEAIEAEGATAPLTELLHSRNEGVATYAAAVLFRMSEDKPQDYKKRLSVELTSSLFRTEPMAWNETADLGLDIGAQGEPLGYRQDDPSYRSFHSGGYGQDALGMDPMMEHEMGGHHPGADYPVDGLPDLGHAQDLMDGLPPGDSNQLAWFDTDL

binding: binds
Substance: exogenous CTNNB1 (β-catenin), untagged (from UniProt P35222 1-781)
